Assay results reported in article PMC5738357.
These are yes or no findings as the source states them, for the method shown. In cells and extracts the contact can be indirect. These calls come from enrichment with a bait or labelling near it, and not all partners need be listed.

The chains behind the UniProt entries cited, without tags or fusion partners.
UniProt P42945: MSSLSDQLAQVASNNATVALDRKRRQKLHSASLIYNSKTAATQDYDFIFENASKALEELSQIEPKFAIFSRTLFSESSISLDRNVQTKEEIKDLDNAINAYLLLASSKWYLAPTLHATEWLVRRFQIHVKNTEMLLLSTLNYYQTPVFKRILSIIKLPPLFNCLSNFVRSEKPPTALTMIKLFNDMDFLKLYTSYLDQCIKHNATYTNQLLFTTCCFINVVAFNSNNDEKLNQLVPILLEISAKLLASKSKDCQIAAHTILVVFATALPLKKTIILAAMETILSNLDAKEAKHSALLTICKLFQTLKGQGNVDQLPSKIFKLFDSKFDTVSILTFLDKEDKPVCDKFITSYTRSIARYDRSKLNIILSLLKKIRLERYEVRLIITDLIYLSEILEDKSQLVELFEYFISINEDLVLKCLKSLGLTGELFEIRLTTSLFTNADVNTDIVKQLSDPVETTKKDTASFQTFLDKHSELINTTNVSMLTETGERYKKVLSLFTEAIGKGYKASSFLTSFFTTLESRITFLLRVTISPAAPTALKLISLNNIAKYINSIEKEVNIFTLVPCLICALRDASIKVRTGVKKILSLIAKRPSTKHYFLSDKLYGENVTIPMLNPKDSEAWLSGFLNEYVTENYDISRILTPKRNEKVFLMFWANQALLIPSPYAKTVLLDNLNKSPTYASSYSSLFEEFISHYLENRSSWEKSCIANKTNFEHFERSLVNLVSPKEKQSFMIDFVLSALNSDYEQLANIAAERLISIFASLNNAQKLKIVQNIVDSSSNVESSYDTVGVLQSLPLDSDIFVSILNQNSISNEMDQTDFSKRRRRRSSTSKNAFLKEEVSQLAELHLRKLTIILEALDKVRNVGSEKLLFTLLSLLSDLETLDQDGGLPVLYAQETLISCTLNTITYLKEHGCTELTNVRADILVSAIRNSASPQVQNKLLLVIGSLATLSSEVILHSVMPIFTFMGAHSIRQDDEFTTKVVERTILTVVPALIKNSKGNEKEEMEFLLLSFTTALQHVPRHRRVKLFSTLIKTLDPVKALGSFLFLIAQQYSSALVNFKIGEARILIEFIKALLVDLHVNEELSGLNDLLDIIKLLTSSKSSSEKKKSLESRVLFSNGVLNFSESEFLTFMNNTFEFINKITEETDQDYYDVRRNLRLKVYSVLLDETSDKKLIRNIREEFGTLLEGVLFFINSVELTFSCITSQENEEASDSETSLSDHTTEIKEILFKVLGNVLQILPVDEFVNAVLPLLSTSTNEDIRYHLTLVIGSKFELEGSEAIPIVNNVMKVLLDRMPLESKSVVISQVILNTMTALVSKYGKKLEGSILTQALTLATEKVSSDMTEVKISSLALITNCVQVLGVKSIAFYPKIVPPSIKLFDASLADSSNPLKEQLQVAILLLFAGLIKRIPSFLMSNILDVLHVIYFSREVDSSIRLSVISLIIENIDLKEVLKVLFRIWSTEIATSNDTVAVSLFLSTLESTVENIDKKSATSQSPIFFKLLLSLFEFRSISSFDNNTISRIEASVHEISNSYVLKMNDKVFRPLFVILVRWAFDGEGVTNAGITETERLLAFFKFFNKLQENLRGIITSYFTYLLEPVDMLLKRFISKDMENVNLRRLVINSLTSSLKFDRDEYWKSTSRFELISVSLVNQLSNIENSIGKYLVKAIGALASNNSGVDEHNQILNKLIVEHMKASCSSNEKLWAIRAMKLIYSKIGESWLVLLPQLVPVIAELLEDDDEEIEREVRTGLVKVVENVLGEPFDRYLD
UniProt P25586: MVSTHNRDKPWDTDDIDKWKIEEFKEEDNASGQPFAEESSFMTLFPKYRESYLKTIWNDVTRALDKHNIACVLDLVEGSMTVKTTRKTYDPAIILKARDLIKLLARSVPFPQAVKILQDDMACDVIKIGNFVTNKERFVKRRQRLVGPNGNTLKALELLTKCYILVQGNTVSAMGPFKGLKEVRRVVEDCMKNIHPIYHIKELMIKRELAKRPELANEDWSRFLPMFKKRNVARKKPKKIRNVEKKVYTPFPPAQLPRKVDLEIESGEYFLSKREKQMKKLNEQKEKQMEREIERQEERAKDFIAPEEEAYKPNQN
UniProt P41819: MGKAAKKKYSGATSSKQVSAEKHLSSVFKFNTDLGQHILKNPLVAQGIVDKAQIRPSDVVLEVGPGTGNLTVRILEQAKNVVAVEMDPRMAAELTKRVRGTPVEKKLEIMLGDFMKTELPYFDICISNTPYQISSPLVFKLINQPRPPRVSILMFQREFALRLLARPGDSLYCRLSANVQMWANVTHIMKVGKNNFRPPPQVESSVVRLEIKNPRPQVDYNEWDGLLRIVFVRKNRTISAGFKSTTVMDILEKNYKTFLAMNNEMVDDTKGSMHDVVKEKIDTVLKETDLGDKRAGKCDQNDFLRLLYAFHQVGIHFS
UniProt Q05022: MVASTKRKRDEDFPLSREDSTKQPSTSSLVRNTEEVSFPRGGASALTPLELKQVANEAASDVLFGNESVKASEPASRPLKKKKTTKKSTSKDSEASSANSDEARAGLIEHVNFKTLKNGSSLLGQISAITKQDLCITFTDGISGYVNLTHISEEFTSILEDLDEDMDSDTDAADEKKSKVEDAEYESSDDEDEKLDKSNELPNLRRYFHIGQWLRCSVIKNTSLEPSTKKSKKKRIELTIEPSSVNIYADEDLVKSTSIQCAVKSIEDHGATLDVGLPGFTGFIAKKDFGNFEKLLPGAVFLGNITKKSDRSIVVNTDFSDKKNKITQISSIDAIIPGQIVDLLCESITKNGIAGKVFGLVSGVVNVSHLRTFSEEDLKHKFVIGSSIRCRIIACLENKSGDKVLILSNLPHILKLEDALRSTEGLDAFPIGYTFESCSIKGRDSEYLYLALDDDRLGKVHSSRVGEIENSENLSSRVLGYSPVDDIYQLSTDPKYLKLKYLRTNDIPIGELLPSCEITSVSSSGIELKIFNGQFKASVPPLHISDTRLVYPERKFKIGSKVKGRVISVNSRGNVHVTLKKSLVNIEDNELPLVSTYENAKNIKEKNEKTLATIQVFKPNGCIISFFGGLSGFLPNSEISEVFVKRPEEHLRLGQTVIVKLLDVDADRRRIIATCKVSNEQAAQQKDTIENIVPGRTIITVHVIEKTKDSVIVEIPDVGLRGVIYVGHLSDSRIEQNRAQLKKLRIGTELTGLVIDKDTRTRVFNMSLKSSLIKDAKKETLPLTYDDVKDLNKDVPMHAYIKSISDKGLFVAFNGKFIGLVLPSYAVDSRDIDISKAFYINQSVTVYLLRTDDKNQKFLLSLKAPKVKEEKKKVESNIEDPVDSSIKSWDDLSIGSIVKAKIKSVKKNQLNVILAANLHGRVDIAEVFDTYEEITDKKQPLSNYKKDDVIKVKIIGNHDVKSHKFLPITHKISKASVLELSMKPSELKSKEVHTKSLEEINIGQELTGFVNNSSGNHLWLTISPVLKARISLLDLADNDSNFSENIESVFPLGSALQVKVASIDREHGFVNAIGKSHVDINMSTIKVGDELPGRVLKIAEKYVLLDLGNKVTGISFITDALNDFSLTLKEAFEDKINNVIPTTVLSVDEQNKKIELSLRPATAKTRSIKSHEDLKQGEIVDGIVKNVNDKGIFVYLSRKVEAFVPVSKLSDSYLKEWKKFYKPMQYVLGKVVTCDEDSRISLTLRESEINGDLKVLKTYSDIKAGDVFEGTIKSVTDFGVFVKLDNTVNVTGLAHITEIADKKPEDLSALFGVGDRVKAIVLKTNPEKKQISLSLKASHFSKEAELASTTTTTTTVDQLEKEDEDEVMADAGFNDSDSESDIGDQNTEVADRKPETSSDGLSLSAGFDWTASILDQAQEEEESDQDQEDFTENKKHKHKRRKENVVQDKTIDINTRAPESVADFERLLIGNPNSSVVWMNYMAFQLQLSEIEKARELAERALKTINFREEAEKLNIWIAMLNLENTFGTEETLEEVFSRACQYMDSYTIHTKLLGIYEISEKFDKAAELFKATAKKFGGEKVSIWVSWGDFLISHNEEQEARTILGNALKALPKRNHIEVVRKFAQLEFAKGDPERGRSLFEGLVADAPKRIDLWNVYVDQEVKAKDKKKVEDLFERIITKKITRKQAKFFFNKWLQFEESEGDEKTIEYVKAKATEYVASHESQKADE

T1: scEnp1-FTpA (S. cerevisiae) (UniProt P38333)
T1 sequence: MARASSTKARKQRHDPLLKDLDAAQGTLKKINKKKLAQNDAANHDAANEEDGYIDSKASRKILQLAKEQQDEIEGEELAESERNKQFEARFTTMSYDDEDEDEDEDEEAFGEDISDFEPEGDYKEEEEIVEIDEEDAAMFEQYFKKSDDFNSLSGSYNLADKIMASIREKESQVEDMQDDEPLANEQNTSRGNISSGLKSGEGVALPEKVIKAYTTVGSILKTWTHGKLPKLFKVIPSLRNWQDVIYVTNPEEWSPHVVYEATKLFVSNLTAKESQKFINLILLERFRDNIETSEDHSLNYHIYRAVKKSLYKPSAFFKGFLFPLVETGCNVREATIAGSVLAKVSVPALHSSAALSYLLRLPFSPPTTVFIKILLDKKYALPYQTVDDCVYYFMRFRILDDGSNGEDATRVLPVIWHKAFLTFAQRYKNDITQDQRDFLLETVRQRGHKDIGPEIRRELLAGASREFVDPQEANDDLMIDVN


How the values were obtained:
[1] = molecular target: T1, scEnp1-FTpA (S. cerevisiae); assay: affinity purification with mass spectrometry; tandem affinity-purification of FTpA-tagged yeast baits (IgG Sepharose, TEV, Flag agarose); SDS-PAGE, Coomassie, bands identified by mass spectrometry; cells expressing or depleted of Dim2 (GAL::scDIM2, glucose 8 h) or with or without Krr1 degradation (auxin 90 min)
[2] = molecular target: scUtp10-FTpA (S. cerevisiae) (UniProt P42945); assay: as above
[3] = molecular target: scKrr1-FTpA (S. cerevisiae) (UniProt P25586); assay: affinity purification with mass spectrometry; semi-quantitative mass spectrometry (1D nLC-ESI-MS-MS, MaxQuant iBAQ normalised to the bait) of FTpA eluates from depleted and non-depleted cells

| Molecule | binding [1] | binding [3] | other results |
| --- | --- | --- | --- |
| Dim1 (from UniProt P41819 1-318) | binds |  |  |
| Rrp5 (from UniProt Q05022 1-1729) |  |  | binding [2]: binds |
| Rrp12 (protein, UniProt Q12754 1-1228) MDQDKVAFLLELEDKLAKIRSQVNSKLENQKHIAIILTAVEENIAGQATNDVSKNIVNYIISFMSLLDQAVDPSTHEIKDIQLASSSTYLLDLIFHYSPKVLLRSKFSEILTKIAPCITAEKANAPLIRAAIGCLESLLIAQDAQAWNNTYDLNVTPKRGLQGILELSLDVRPKVRKRALDAVHAVLLNPPVAPTAEHVAAVFVADFCDKQLAGILNDLSNLSNKQLKAQKTKEDINASVMRSLRLITSVVSTGQWPSSQIEPLCDVLLGVTKSSEQYLVSASFECFESMFKTMAETTISSGLAENKYLRVLDTIFALKPSNVDTLLTKSWIAVVIKGMSTYATHQPLKALRKIPGVFHIMCTYLASETPEVYQAASQCLISILSESVKDDLLLYTPSVDEKVFKNVDEIISQIAKTFIDFLSIRYSHCSREILKILVAAFNKFRYRSNPHFLKSLKIVDTWRVNEEQFMDLRNEIELVIGASISAMGPEMILAEAPLNLDNPSSERPGRAWLLPLIRDYTKNANLATFQNELAPYIKSFQSKFDKVPEESIQLRVFQTIVDQIWSTLPRFCELPMDLRESFTDEFASELSSLLYSEVELRTTICHALKVLAESNVSYAEESSSHNVLLLQRFPISEAQKNIEYLSTKSTNLLAVLFNVYTQTTPNARSYILETIDQYLKITSKEDLEKTFNNVCGLLKNSMNEESSGNVNKEKKKPQLTATLLDLIICMITYLPVSSYSALFSMFSLTVNSADALIQKRAYRIITKLSELKSGSTAVAQFISDIENVMVDSASSVQTSAKAARLTAIKTIVELLPLDHLDFIVRTVAEVILSTKDVNEKSRETAFDTLICMGRKMNEPNGIIKLFQIPGYDPTTPDQSSSISEFFKIISAGLIGESQHMVSSSITGYACLVFEFKNELDSGILMDIYDTIELYLTSNSREIVKSAIGFTKVCVLGLPEELMRPKVPELLLKLLRWSHEHTGHFKAKVKHIIERLIRRFGYDYIEANFPEEDRRLLTNIRKMRNRNKRKDEEVTTGVSDVAATKGSRFMSAFDEAVYGSDEENDNGSDQEENVAGGKMKNGAKQFIVESGDNPLDLLDSQTLAHISSTRPKKFNKNQNRARFNDDAFNFDSEGKLVVKGQPKPSTNVDDPLSAVTSGINAYLEAVKSGPVRGQRNKLKFRKNGKDSDEFGDDDDGEKDSRLMRGRVNQGNKIGKHNKKGPKFKSRKKL | binds |  |  |
| Tsr1 (protein, UniProt Q07381 1-788) MAGHSHRSSLKNGHKSYKSKHASKGALKRLYKGKVEKEPVGTGKPDKQVSKLQRKNKAKQLRAQRILDSIENRKLFEGKNGAAKIITIVPLVNDLDPLDILYKLLKCADDEGIMVQEVDSKRIFNVHIKKFKSNLKIIIPDMTNFLNILDCAKVADFVVFGLSGVQEVDEEFGEQIIRALELQGIASYIGVISNLSAVHEKEKFQLDVKQSLESYFKHFFPSEERVYNLEKNSDALNVLRTLCQRLPRSINWRDNRGYVVADFVDFVETSPDSGDLVIEGTVRGIGFNANRLVHIPDFGDFQLNKIEKISESSQKRKIIKEKATDSLSLELDLQTVFESNMNRDTLDEYAPEGTEDWSDYDEDFEYDGLTTARYDDHGFLPGREQTSKKAAVPKGTSDYQAKWYLDDVIDANEEEEAEQTNGKDETMMEIDDEMMVEQDNEEVAGDEEYDIEDNEGFEELSPEEEERQLREFRDMEKEDREFPDEIELEPSESAIERLKRYRGLKNLYNCDWQVDEKDPSSPAEWKRLLRIGNYKNTKNRIIKETKNEAQAIAGDRIRMFIRFPKFLLEKIQDPKQLLFAVYGLLLHEHKNAVVNFSLQRWEQYDKPVPSQEPIVVQYGVRRYTIQPLFSQGSNSPNNVHKYERFLHPDTVSVATCIAPVDFTQSPAIFFKPSPTDAKNIELIGHGTFLNADHSRILAKRAILTGHPFRFHKTVVTVRYMFFRPEDVEWFKSIPLFTKSGRSGFIKESLGTHGYFKATFDGKLSAQDVVAMSLYKRMWPMPSLPWNGM | binds |  |  |
| Nob1 (endogenous, yeast) (protein, UniProt Q08444 1-459) MTENQTAHVRALILDATPLITQSYTHYQNYAQSFYTTPTVFQEIKDAQARKNLEIWQSLGTLKLVHPSENSIAKVSTFAKLTGDYSVLSANDLHILALTYELEIKLNNGDWRLRKKPGDALDASKADVGTDGKQKLTEDNKKEEDSESVPKKKNKRRGGKKQKAKREAREAREAENANLELESKAEEHVEEAGSKEQICNDENIKESSDLNEVFEDADDDGDWITPENLTEAIIKDSGEDTTGSLGVEASEEDRHVALNRPENQVALATGDFAVQNVALQMNLNLMNFMSGLKIKRIRNYMLRCHACFKIFPLPKDGKPKHFCASCGGQGTLLRCAVSVDSRTGNVTPHLKSNFQWNNRGNRYSVASPLSKNSQKRYGKKGHVHSKPQENVILREDQKEYEKVIKQEEWTRRHNEKILNNWIGGGSADNYISPFAITGLKQHNVRIGKGRYVNSSKRRS | binds |  |  |
| Utp14 (endogenous, yeast) (protein, UniProt Q04500 1-899) MAKKKSKSRSKSSRRVLDALQLAEREINGEFDNSSDNDKRHDARRNGTVVNLLKRSKGDTNSDEDDIDSESFEDEELNSDEALGSDDDYDILNSKFSQTIRDKKENANYQEEEDEGGYTSIDEEDLMPLSQVWDMDEKTAQSNGNDDEDASPQLKLQDTDISSESSSSEESESESEDDEEEEDPFDEISEDEEDIELNTITSKLIDETKSKAPKRLDTYGSGEANEYVLPSANAASGASGKLSLTDMMNVIDDRQVIENANLLKGKSSTYEVPLPQRIQQRHDRKAAYEISRQEVSKWNDIVQQNRRADHLIFPLNKPTEHNHASAFTRTQDVPQTELQEKVDQVLQESNLANPEKDSKFEELSTAKMTPEEMRKRTTEMRLMRELMFREERKARRLKKIKSKTYRKIKKKELMKNRELAAVSSDEDNEDHDIARAKERMTLKHKTNSKWAKDMIKHGMTNDAETREEMEEMLRQGERLKAKMLDRNSDDEEDGRVQTLSDVENEEKENIDSEALKSKLGKTGVMNMAFMKNGEAREREANKETLRQLRAVENGDDIKLFESDEEETNGENIQINKGRRIYTPGSLESNKDMNELNDHTRKENKVDESRSLENRLRAKNSGQSKNARTNAEGAIIVEEESDGEPLQDGQNNQQDEEAKDVNPWLANESDEEHTVKKQSSKVNVIDKDSSKNVKAMNKMEKAELKQKKKKKGKSNDDEDLLLTADDSTRLKIVDPYGGSDDEQGDNVFMFKQQDVIAEAFAGDDVVAEFQEEKKRVIDDEDDKEVDTTLPGWGEWAGAGSKPKNKKRKFIKKVKGVVNKDKRRDKNLQNVIINEKVNKKNLKYQSSAVPFPFENREQYERSLRMPIGQEWTSRASHQELIKPRIMTKPGQVIDPLKAPFK |  | binds |  |
| Nop9 (protein, UniProt P47077 1-666) MGKTKTRGRRHQDKQRKDEFEPSSNSAKEHIQQEESTYNDEAEIKETQPQMFFGVLDREELEYFKQAESTLQLDAFEAPEEKFQFVTSIIEEAKGKELKLVTSQITSKLMERVILECDETQLKDIFQSFNGVFFGLSCHKYASHVLETLFVRSAALVERELLTPSFDNNEKEGPYVTMENMFLFMLNELKPHLKTMMNHQYASHVLRLLILILSSKTLPNSTKANSTLRSKKSKIARKMIDIKDNDDFNKVYQTPESFKSELRDIITTLYKGFTNGAESRSDISQSTITKFREYSVDKVASPVIQLIIQVEGIFDRDRSFWRLVFNTADEKDPKEESFLEYLLSDPVGSHFLENVIGSARLKYVERLYRLYMKDRIVKLAKRDTTGAFVVRALLEHLKEKDVKQILDAVVPELSMLLNSNMDFGTAIINASNKQGGYLRDDVIAQLIQKYYPEKSDAKNILESCLLLSASTLGNTRDDWPTAEERRRSVFLEQLIDYDDKFLNITIDSMLALPEERLIQMCYHGVFSHVVEHVLQTTRVDIIKRKMLLNILSKESVNLACNVYGSHIMDKLWEFTAKLTLYKERIARALVLETEKVKNSIYGRQVWKNWKLELYVRKMWDWKKLIKEQEFEIFPNSKPLQPKPEKHSRERNNSKEGSAFKKQKHYR |  | binds |  |
| Mrd1 (protein, UniProt Q06106 1-887) MSRIIVKGLPVYLTDDNLREHFTKRLRQKHSHQAVNGSGPDLITDVKILRDRNGESRRFGFIGYRNEEDAFDAVEYFNGSFINTSKIEVSMAKSFADPRVPQPMKEKRREALKRFREKEEKLLQEENRKKKKVDENKHSNIDDEIRKNKQLQEFMETMKPSSQVTSWEKVGIDKSIEDEKLKREEEDSSVQGNSLLAHALALKEENNKDEAPNLVIENESDDEYSALNRNRDEDQEDAGEEEKMISISNLKDTDIGLVNDDANSDEKENEKRRNLAQDEKVSDLDWFKQRRVRIKESEAETREKSSSYATEQNESLDTKKEEQPERAVPQKTDEELAIEKINQTGRLFLRNILYTSKEEDFRKLFSPFGELEEVHVALDTRTGQSKGFAYVLFKDSKNAVNAYVELDKQIFQGRLLHILPGEEKKSHRLDEFDLKNMPLKKQKELKRKAAASRQTFSWNSLYMNQDAVLGSVAAKLGLEKSQLIDAENSSSAVKQALAEAHVIGDVRKYFESKGVDLTKFSQLKSTNQRDDKVILVKNFPFGTTREELGEMFLPYGKLERLLMPPAGTIAIVQFRDTTSARAAFTKLSYKRFKDGIIYLERGPKDCFTKPAEADDLINNTSAKEEENPVEVKPSSNDLMEANKDVTEGSSNAHDEDVIDGPTVSIFIKNLNFSTTNQNLTDRFKVFTGFVVAQVKTKPDPKHQGKTLSMGFGFVEFRTKEQANAVIAAMDGTVIDGHKIQLKLSHRQASQSGNTKTKSNKKSGKIIVKNLPFEATRKDVFELFNSFGQLKSVRVPKKFDKSARGFAFVEFLLPKEAENAMDQLHGVHLLGRRLVMQYAEEDAVDAEEEIARMTKKVRKQVATNEMAALRNGGGRKKLDVDDEENEGF |  | binds |  |
